Experimental data as given in PubChem BioAssay AID540276 (National Center for Advancing Translational Sciences (NCATS), 2011).
“And” between values parts separate entries of the source, which are not always exact repeats. Equal values may be shown once. The whole screen tested about 300,000 compounds, of which about 5,400 (1.8%) were called active. Inconclusive results, whose numbers are uncertain, are shown with a selection of clear calls. Calls follow the shape of the full dose curve; tested in HEK293 cells. Where the call is inconclusive, the potency comes from a doubtful curve fit.

test: qHTS for inhibitors of binding or entry into cells for Marburg Virus; conditions: Marburg virus pseudotyped entry inhibition, cell reporter; activity change, negative = inhibition: at 37.8 µM (top of the series) unless noted
% is scaled to controls: 0 for no effect and ±100 for the full control effect; potency is read from the fitted curve at half-maximal effect.

| Structure (SMILES) | Potency | activity change, negative = inhibition |
| --- | --- | --- |
| Cc1cccc(OCCn2cc(/C=N/NC(=O)c3ccncc3)c3ccccc32)c1 | inconclusive: 6.31 µM [inhibitor, partial curve, poor fit] | – |
| COc1ccc2c(c1)c1ncn(Cc3ccco3)c(=O)c1n2C | inconclusive: 3.16 µM [activator, single point] | – |
| CC1CCN(C(=O)CSc2nnc(-c3ccccc3F)o2)CC1 | inconclusive: 15.8 µM [activator, single point] | – |
| CC(=O)c1cc(C)ccc1OC(=O)c1cccnc1 | inconclusive: 17.8 µM [activator, single point] | – |
| O=C(CNC1CCCCCC1)Nc1ccccc1N1CCCCC1 | inconclusive: 7.3 µM [inhibitor, partial curve, poor fit] | – |
| O=C(CSc1nc(Cc2ccccc2)nc2ccccc12)c1ccc2c(c1)OCCO2 | inconclusive: 18.3 µM [inhibitor, single point] | – |
| O=C(NC(=S)Nc1ccc2[nH]c(=O)[nH]c2c1)c1ccccc1Cl | inconclusive: 15.8 µM [activator, partial curve, poor fit] | – |
| Cc1cc(C(=O)Cn2nnc3ccccc3c2=O)c(C)n1-c1c(C)n(C)n(-c2ccccc2)c1=O | – | inactive: 7.53% |
| COC(=O)c1cc(NC(=O)Cc2coc3cc(OC)ccc23)cc(C(=O)OC)c1 | inconclusive: 18.3 µM [inhibitor, partial curve, poor fit] | – |
| CCOC(=O)Cc1csc(NC(=S)NC(=O)c2ccccc2Br)n1 | inconclusive: 7.31 µM [activator, partial curve] | – |
| COCCN1CCc2nc(SCC(=O)Nc3ccc(C)c(Cl)c3)[nH]c(=O)c2C1 | – | inactive: -3.68% [at 46.1 µM] |
| CCCCn1c(=O)c(CCC(=O)OCC(=O)NC(C)c2ccccc2)nc2ccccc21 (centres undefined) | inconclusive: 1 µM [inhibitor, full curve, poor fit] | – |
| COc1ccc(N(CC(=O)N/N=C/c2ccccc2F)S(=O)(=O)c2ccccc2)cc1 | inconclusive: 5.01 µM [inhibitor, full curve, poor fit] | – |
| COc1cc(C)nc(NC(=O)COc2ccc(Cl)cc2C)n1 | – | inactive: 14.7% [at 46.1 µM] |
| O=C(Nc1cccc(-n2cccn2)c1)C1CCCN(Cc2cc3ccccc3[nH]2)C1 (centres undefined) | inconclusive: 22.4 µM [inhibitor, single point] | – |
| C[C@@H]1CN(C2CCN(Cc3nc(C(c4ccccc4)c4ccccc4)no3)CC2)C[C@H](C)O1 | inconclusive: 12.6 µM [inhibitor, single point] | – |
| Cc1ccc(NC(=O)CSc2nnc(-c3cccnc3)s2)cc1 | – | inactive: 9.83% |
| CC(C)CCOc1cccc(OCC(=O)Nc2ccncc2)c1 | inconclusive: 11.2 µM [inhibitor, partial curve, poor fit] | – |
| Nc1cc(Cl)ccc1Oc1ccc2ccccc2c1 | inactive | – |
| CC(=O)Nc1ccccc1C(=O)C(=O)Nc1cccc(C(=O)N2CCC3(CC2)OCCO3)c1 | – | inactive: -20.6% [at 46.1 µM] |
| Cc1ccc(CNC(=O)Cc2ccc(-c3ccccc3)cc2)cc1 | inconclusive: 29.1 µM [inhibitor, single point] | – |
| CN1/C(=C\C=O)C(C)(C)c2ccccc21 | – | inactive: 5.24% [at 46.1 µM] |
| COC(=O)C1CCN(C(=O)/C=C/c2ccc3c(c2)OCO3)CC1 | – | inactive: -3.19% |

| Structure (SMILES) | Potency | activity change, negative = inhibition |
| --- | --- | --- |
| Nc1cc(N)nc(SCCOc2ccccc2F)n1 | inconclusive: 2.31 µM [activator, partial curve, poor fit] | – |
| COc1ccc(-c2cc(C)no2)cc1S(=O)(=O)NCc1cccc(C)c1 | inconclusive: 3.16 µM [inhibitor, full curve] | – |
| CCOC(=O)c1cccc(NC(=O)CCOc2ccccc2)c1 | inconclusive: 35.5 µM [inhibitor, single point] | – |
| FC(F)(F)c1cccc(/C=N/NC(=S)NC2CCCCC2)c1 | inconclusive: 0.316 µM [inhibitor, full curve, poor fit] | – |
| Fc1ccccc1OCCSc1nnnn1-c1ccccc1 | inconclusive: 1.16 µM [activator, single point] | – |
| O=C1CC(c2ccc(OCCCCCOc3ccc(C4CC(=O)NC4=O)cc3)cc2)C(=O)N1 (centres undefined) | inconclusive: 35.5 µM [inhibitor, single point] | – |
| O=c1[nH]cc(S(=O)(=O)N2CCCc3ccccc32)c(=O)[nH]1 | inconclusive: 3.98 µM [inhibitor, single point] | – |
| CCCC(=O)OC/C(O)=C(\C#N)c1nc2ccccc2[nH]1 | inconclusive: 22.4 µM [inhibitor, single point] | – |
| Cc1ccccc1NC(=O)C1(NC(=O)c2cccc(N3C(=O)CSC3c3ccccc3)c2)CCCCC1 (centres undefined) | inconclusive: 29.1 µM [inhibitor, single point] | – |
| COc1cccc2[nH]c(C(=O)NCCc3ccccc3)cc12 | inconclusive: 3.16 µM [activator, single point] | – |
| Cc1ccc(C)n1NC(=O)c1cccc(Cl)c1 | inconclusive: 3.16 µM [inhibitor, partial curve, poor fit] | – |
| Cc1c(CC(=O)NCCCC(=O)O)c(=O)oc2cc3c(cc12)CCC(C)(C)O3 | inconclusive: 3.16 µM [inhibitor, full curve] | – |
| CCc1cccc(CC)c1NC(=O)CN1CC(C)SC1=NC1CCCCC1 (centres undefined) | inconclusive: 2.51 µM [inhibitor, full curve, poor fit] | – |
| CC1=C([N+](=O)[O-])C(c2ccc3c(c2)OCO3)N(C)C(=O)N1C (centres undefined) | – | inactive: 8.33% [at 46.1 µM] |
| CCC(C)(C)NCC(=O)Nc1ccc(OC(F)(F)F)cc1 | – | inactive: -10.8% [at 46.1 µM] |
| N#Cc1ccc(C(=O)OCC(=O)N2CCOCC2)cc1 | – | inactive: 3.51% [at 46.1 µM] |
| Cc1nc(NC(=O)c2ccc(-c3cc4ccccc4oc3=O)cc2)ccc1Br | – | inactive: -4.03% |
| N#CC1=C2SC=C(c3ccc(Br)cc3)N2CCCC1=O | inconclusive: 2 µM [activator, partial curve, poor fit] | – |
| CCc1noc(C)c1C(=O)Nc1ncc(C)s1 | – | inactive: 13.3% |
| Cc1ccc(C(=O)Nc2nnc(-c3ccc(C(C)(C)C)cc3)s2)cc1 | – | inactive: -1.52% [at 46.1 µM] |
| COc1ccc2c(c1)/C(=C/c1cnc[nH]1)C(=O)N2 | inactive and inconclusive: 12.6 µM [inhibitor, partial curve] | – |
| COc1ccc(-n2c(CN3CCOCC3)nc3ccc([N+](=O)[O-])cc3c2=O)c(OC)c1 | – | inactive: 18.6% [at 46.1 µM] |
| CCOc1c(C(N)=O)cc([N+](=O)[O-])cc1[N+](=O)[O-] | inconclusive: 4.47 µM [activator, full curve] | – |

| Structure (SMILES) | Potency | activity change, negative = inhibition |
| --- | --- | --- |
| CC(=O)c1cn(Cc2ccc(F)cc2)c2ccccc12 | inconclusive: 35.5 µM [inhibitor, single point] | – |
| CCCC(=O)C1=C(O)C(C(=O)OC)C(C)(C)CC1=NC(C)C (centres undefined) | – | inactive: 4.45% |
| O=C1C2C3C=CC(c4ccccc4)(C2C(=O)N1c1cccc(Cl)c1)C1C(=O)N(c2cccc(Cl)c2)C(=O)C31 (centres undefined) | inconclusive: 35.5 µM [inhibitor, single point] | – |
| Cc1nn(-c2ccccc2)nc1C(=O)NNC(=O)c1ccc(C(F)(F)F)cc1 | inconclusive: 0.708 µM [inhibitor, full curve, poor fit] | – |
| CC(=O)N1CCc2cc(S(=O)(=O)NCCC3=CCCCC3)ccc21 | inconclusive: 10 µM [inhibitor, partial curve] | – |
| COc1ccc(O)c(C(=O)c2cnc3nc4ccccc4n3c2)c1 | inconclusive: 35.5 µM [inhibitor, single point] | – |
| COc1ccccc1-c1cn[nH]c1-c1ccc(OCc2ccccc2F)cc1O | – | inactive: -17.7% |
| COc1cc(CN(C(=O)c2ccc(OC(C)C)cc2)c2ccccn2)cc(OC)c1OC | inconclusive: 17.8 µM [inhibitor, partial curve, poor fit] | – |
| COC(=O)c1ccc(/C=N/Nc2nc3ccccc3[nH]2)cc1 | inconclusive: 20 µM [activator, single point] | – |
| Nc1cccn2c(-c3ccc(Cl)c(Cl)c3)cnc12 | – | inactive: -16.7% [at 46.1 µM] |
| O=C(C1CCN(S(=O)(=O)c2ccccc2)CC1)N1CCc2ccccc21 | – | inactive: -4.99% |
| Nc1c(C(=O)Nc2cccc(F)c2)nnn1-c1ccc2c(c1)OCCO2 | inconclusive: 6.31 µM [inhibitor, partial curve, poor fit] | – |
| O=C(COc1ccc(Cl)cc1)Nc1ccc2c(c1)C(=O)NC2=O | – | inactive: 4.19% [at 46.1 µM] |
| CCOC(=O)CSc1nc2ccc(NC(=O)c3ccc(Cl)cc3)cc2s1 | – | inactive: 10% [at 46.1 µM] |
| O=C(c1ccccc1[N+](=O)[O-])N1CCc2ccccc2C1 | inconclusive: 3.16 µM [inhibitor, single point] | – |
| CC(C)N=c1scc(-c2cccs2)n1/N=C/c1ccc(O)c(O)c1O | inconclusive: 8.91 µM [inhibitor, partial curve, poor fit] | – |
| CC(=O)NCCNC(=O)c1ccc(-n2c(C)ccc2C)cc1 | inconclusive: 12.6 µM [inhibitor, single point] | – |
| Cc1ccc(C(=O)Nc2ccccn2)cc1S(=O)(=O)N1CCOCC1 | – | inactive: -9.69% |
| COc1ccc(/C=N/NC(=O)c2csc(-n3nc(C)cc3C(F)(F)F)n2)cc1 | inconclusive: 29.1 µM [inhibitor, single point] | – |
| c1ccc(C(c2ccccc2)N2CCN(c3nc4ccccc4n4cnnc34)CC2)cc1 | inconclusive: 8.91 µM [inhibitor, partial curve, poor fit] | – |
| CCc1ccc(-n2ccc(=O)c(C(=O)O)n2)cc1 | inconclusive: 5.62 µM [activator, single point] | – |
| CCC(=O)Nc1cccc(NC(=S)NC(=O)c2ccc(Cl)cc2Cl)c1 | inconclusive: 0.112 µM [activator, full curve, poor fit] | – |
| COc1ccc(C2c3c(ncn(Cc4ccco4)c3=N)Oc3ccc4ccccc4c32)cc1 (centres undefined) | inconclusive: 11.2 µM [inhibitor, partial curve, poor fit] | – |

3 of the compounds above, as tab-separated lines.
Structure (SMILES)	Potency	activity change, negative = inhibition
Cc1ccc(C(=O)Nc2ccccn2)cc1S(=O)(=O)N1CCOCC1	–	inactive: -9.69%
COc1ccc(/C=N/NC(=O)c2csc(-n3nc(C)cc3C(F)(F)F)n2)cc1	inconclusive: 29.1 µM [inhibitor, single point]	–
c1ccc(C(c2ccccc2)N2CCN(c3nc4ccccc4n4cnnc34)CC2)cc1	inconclusive: 8.91 µM [inhibitor, partial curve, poor fit]	–

3 compounds out of the list, arranged by length of the SMILES, ascending:

| Structure (SMILES) | Potency | activity change, negative = inhibition |
| --- | --- | --- |
| Nc1cccn2c(-c3ccc(Cl)c(Cl)c3)cnc12 | – | inactive: -16.7% [at 46.1 µM] |
| CCCC(=O)C1=C(O)C(C(=O)OC)C(C)(C)CC1=NC(C)C (centres undefined) | – | inactive: 4.45% |
| O=C(C1CCN(S(=O)(=O)c2ccccc2)CC1)N1CCc2ccccc21 | – | inactive: -4.99% |
